According to US4405642A, “Method for treatment or prophylaxis of cardiac disorders” (American Hospital Supply Corporation, priority 1980, dated 1983):
Values joined by “and” are separate entries in the source; they are usually repeats but may differ in a detail not shown here. Equal values may be shown once. At least one read-out could not be matched to a standard name with certainty.

Test system: heart rate response to isoproterenol
Test: Duration of beta-blockade in vivo, anesthetized dogs, 3-hour infusion
Details: after termination of 3-hour infusion, dog
Experimental: The duration of beta-blockade was determined in vivo using pentobarbitalanesthetized dogs instrumented for measurement of heart rate using a Beckman® cardiotachometer triggered electronically by a phasic aortic blood pressure signal. Both vagus nerves were severed in the cervical region and the animals were mechanically ventilated. Two experimental designs were used. The first employed a 40-minute infusion of test compound and the second used a 3-hour infusion of test compound. In the 40-minute model, isoproterenol was infused into a foreleg vein at the rate of 0.5 μg/kg/min to induce a beta-receptor mediated tachycardia. Various doses of test compound where then infused into a femoral vein over a period of 40 minutes. This infusion was then terminated and recovery from blockade was quantitated. […] This cumulative dose is expressed as mg/kg and is an indication of potency. The time period required for 80% recovery of heart rate for each dose of test drug was also measured to quantitate duration of action. […] Test compounds were dissolved in 0.9% NaCl and infused at a rate of 0.05 ml/kg/min or less. In the 3-hour infusion model, bolus doses of isoproterenol (0.5 μg/kg) were used to assess the degree of beta-blockade and recovery from beta-blockade after termination of the infusion. […]

CC(C)(C)NCC(O)COC(=O)c1ccccc1Cl (stereo not shown) [XXXVIII]
80% Recovery Time: 35 min and > 60 min
